Assay [1] concerns the target GST-tagged F-BAR domain of PSTPIP1 (aa 1-262) (UniProt O43586). Put plainly: affinity purification with mass spectrometry; GST-tagged bait on glutathione-sepharose beads; osteoclast lysate pre-incubated with glutathione-sepharose beads 1 h at 4°C, then 1 h with the bait at 4°C; washed 4 times with lysis buffer; SDS-PAGE; semi-quantitative mass spectrometry by MS2 spectral counting; only the target purified.

Amino acid sequences for entries named in this document (tags omitted). Residues count along the entry.
UniProt O43586, residues 1-262: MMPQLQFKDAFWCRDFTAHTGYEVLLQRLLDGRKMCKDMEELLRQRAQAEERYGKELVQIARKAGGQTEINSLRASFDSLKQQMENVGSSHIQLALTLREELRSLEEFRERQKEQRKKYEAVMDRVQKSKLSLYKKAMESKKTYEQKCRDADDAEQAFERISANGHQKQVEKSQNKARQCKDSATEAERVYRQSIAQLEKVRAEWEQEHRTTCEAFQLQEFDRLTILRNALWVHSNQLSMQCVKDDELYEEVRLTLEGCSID
UniProt P26039: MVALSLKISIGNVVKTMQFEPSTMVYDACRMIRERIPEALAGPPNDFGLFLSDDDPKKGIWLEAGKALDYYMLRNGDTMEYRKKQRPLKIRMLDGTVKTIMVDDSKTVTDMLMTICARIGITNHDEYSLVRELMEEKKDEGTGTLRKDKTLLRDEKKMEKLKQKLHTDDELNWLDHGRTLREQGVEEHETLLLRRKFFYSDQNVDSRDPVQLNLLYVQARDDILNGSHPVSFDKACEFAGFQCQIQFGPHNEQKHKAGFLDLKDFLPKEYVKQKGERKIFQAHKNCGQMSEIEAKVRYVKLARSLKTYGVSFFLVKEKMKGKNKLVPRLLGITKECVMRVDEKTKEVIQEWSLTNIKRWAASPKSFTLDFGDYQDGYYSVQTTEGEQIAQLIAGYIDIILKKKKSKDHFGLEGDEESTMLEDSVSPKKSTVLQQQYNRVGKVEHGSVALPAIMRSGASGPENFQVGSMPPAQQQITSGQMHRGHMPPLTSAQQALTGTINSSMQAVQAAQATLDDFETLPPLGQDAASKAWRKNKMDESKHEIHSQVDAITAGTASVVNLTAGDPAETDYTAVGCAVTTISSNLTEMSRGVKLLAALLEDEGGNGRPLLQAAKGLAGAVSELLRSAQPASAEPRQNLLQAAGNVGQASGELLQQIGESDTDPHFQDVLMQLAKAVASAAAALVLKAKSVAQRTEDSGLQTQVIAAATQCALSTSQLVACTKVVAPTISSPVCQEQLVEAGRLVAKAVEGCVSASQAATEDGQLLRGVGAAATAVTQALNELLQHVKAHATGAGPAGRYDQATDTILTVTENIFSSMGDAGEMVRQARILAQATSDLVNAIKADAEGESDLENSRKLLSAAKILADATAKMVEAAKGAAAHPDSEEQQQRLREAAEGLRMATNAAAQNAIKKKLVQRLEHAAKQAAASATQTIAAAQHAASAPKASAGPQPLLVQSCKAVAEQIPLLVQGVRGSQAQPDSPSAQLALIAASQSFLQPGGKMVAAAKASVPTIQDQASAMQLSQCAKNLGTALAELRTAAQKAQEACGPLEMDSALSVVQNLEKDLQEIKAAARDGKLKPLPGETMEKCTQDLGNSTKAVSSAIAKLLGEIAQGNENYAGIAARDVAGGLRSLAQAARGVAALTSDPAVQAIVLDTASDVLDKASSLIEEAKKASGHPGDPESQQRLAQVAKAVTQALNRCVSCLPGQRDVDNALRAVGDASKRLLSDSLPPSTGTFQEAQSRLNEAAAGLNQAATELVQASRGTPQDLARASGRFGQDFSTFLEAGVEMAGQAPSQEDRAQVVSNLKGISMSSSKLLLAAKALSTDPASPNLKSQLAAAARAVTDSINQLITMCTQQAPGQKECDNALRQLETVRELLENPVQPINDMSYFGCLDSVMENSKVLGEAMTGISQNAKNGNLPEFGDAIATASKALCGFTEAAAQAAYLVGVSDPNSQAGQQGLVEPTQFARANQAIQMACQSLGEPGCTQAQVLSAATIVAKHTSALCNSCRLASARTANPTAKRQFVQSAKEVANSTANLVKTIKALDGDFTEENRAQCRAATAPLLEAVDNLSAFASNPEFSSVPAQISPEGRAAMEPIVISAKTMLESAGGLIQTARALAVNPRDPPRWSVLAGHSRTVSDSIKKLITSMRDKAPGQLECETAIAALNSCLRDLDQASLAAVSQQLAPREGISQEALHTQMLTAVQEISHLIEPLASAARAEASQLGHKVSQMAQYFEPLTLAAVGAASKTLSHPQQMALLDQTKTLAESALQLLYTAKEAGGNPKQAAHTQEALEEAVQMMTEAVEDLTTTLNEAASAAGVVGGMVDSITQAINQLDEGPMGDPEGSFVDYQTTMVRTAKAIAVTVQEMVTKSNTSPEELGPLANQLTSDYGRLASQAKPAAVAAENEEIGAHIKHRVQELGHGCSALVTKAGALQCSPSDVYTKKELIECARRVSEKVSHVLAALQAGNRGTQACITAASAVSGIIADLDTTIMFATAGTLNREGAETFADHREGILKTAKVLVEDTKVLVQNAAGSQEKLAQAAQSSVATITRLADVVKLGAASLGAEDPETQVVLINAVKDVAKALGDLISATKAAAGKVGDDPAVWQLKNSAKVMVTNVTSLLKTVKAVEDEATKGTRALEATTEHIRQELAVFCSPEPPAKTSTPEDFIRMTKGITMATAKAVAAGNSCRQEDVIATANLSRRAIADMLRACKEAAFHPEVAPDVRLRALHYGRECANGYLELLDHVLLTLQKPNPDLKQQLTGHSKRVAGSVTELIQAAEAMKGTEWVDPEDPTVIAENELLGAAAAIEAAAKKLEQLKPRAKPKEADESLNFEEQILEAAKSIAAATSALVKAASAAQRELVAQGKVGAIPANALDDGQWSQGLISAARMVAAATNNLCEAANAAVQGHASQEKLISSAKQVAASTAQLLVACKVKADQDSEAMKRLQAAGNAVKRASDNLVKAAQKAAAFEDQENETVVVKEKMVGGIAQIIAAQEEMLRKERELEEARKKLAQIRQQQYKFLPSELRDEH
UniProt P35991: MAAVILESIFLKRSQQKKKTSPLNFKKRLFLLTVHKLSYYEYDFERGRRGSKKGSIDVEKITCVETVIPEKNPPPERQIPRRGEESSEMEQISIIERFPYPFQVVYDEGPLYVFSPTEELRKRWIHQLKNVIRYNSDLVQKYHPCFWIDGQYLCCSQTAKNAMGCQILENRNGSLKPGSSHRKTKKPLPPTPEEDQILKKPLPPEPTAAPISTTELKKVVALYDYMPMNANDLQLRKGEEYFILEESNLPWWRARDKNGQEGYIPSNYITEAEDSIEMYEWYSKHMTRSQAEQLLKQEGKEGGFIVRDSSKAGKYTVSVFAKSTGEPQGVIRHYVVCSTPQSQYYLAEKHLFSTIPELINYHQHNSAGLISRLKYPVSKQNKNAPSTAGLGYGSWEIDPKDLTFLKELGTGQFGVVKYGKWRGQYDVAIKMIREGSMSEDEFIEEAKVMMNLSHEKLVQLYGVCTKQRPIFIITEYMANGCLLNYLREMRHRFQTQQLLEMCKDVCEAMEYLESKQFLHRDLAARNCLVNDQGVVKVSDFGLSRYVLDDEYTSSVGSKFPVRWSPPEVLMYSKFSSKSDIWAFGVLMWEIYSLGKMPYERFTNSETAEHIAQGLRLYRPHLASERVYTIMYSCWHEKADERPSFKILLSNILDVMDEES
UniProt P29352: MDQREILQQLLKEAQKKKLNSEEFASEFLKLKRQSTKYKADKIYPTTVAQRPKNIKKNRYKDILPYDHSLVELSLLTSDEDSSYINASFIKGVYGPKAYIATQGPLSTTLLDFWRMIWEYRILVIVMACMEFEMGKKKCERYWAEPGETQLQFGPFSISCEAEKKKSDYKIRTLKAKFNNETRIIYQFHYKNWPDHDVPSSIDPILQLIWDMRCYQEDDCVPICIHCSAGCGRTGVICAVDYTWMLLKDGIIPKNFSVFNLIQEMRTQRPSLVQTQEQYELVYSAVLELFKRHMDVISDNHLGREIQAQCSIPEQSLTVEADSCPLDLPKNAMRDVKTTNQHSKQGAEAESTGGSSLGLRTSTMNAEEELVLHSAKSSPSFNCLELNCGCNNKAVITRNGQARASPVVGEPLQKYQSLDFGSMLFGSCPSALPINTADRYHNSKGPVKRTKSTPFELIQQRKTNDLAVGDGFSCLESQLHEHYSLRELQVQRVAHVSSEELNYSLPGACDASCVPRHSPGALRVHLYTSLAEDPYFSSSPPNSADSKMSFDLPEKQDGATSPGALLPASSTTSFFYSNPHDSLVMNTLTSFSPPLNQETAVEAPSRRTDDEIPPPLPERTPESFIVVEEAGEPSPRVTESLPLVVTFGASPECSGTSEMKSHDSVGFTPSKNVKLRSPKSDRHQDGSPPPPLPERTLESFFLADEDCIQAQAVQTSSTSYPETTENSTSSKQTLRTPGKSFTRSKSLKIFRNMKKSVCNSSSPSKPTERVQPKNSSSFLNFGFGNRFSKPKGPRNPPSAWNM
UniProt Q9JKF1: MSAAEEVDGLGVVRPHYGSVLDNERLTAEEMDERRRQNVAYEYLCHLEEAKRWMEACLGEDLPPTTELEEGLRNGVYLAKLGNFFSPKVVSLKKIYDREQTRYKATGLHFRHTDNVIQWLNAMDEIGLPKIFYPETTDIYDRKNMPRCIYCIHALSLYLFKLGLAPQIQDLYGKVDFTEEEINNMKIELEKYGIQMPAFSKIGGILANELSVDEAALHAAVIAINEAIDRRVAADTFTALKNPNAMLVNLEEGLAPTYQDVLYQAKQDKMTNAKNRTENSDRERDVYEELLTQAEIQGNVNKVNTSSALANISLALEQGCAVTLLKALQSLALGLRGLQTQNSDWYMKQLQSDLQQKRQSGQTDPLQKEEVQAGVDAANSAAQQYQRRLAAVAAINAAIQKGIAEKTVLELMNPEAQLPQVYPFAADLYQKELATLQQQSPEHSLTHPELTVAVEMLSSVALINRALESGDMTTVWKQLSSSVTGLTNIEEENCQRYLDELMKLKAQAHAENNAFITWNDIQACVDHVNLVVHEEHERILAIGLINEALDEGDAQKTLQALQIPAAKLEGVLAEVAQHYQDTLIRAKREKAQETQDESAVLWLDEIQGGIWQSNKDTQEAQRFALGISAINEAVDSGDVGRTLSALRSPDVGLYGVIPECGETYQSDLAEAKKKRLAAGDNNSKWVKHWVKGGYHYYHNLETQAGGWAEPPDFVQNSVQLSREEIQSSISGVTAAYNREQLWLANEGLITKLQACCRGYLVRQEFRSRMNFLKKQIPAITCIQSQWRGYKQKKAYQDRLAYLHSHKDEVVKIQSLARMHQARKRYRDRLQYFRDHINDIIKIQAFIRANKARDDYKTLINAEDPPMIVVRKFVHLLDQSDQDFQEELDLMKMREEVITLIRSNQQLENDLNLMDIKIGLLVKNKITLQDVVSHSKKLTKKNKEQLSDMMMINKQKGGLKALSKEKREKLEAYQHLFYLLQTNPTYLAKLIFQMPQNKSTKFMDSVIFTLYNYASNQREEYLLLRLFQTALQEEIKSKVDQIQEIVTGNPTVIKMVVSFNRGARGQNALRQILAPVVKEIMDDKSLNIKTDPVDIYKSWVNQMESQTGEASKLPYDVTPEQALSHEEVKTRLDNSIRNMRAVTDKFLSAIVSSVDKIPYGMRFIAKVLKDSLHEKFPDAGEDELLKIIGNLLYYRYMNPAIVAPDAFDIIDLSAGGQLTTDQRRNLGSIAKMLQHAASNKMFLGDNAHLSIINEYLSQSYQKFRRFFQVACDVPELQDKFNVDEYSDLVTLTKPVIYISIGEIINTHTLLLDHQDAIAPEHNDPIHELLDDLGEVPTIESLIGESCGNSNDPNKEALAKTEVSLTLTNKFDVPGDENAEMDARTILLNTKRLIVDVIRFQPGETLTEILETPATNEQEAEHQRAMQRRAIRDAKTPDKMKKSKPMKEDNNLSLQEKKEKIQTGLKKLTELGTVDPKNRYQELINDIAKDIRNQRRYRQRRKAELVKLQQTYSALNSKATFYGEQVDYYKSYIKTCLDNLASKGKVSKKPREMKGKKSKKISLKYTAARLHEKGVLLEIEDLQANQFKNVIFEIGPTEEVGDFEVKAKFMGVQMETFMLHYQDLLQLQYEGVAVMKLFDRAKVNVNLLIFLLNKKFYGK

Assay [2] concerns the target T1, full-length GST-PSTPIP2 (UniProt Q99M15).
T1 sequence: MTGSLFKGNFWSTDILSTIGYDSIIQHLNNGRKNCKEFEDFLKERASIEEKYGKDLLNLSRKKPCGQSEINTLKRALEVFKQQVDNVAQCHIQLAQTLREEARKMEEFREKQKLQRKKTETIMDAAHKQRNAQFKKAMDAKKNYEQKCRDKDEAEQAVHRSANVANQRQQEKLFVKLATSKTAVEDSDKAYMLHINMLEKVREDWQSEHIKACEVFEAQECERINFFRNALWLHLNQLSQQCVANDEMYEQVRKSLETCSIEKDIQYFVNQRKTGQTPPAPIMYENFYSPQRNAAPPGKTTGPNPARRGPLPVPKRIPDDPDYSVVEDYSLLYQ
Described as above.

No constants are given. Whether binding was seen depends on the method and setting. Binding seen in cells or lysates may run through a third protein. These calls come from enrichment with a bait or labelling near it, and not all partners need be listed. A no says only that the protein was not detected with the bait. For some assays here: Where a sequence is shown, tags or fusion partners need not be part of it.

For the molecule Talin-1 (from UniProt P26039 1-2541), the binding result is reported as “no binding” in assay [1] and “binds” in assay [2].
The like results for “Tyrosine-protein phosphatase non-receptor type 6 (from UniProt P29351-1 1-595) (enzyme)” were, in that order, “binds” and “no binding”.
In the case of “Tyrosine-protein kinase BTK (from UniProt P35991 1-659) (enzyme)”, the binding entry in assay [1] is on record as “binds”.
Consider “Tyrosine-protein phosphatase non-receptor type 22 (from UniProt P29352 1-802) (enzyme)”, for which the binding entry in assay [1] and in assay [2] was “binds” throughout.
Turning to “Ras GTPase-activating-like protein IQGAP1 (from UniProt Q9JKF1 1-1657)”, the binding result in assay [1] and in assay [2] was “binds” throughout.
With “Microtubule-actin cross-linking factor 1 (from UniProt Q9QXZ0 1-7354)”, the binding entry in assay [1] was “binds”.

B1: ARF GTPase-activating protein GIT1 (protein, UniProt Q68FF6 1-770)
chain: MSRKGPRAEVCADCSAPDPGWASISRGVLVCDECCSVHRSLGRHISIVKHLRHSAWPPTLLQMVHTLASNGANSIWEHSLLDPAQVQSGRRKANPQDKVHPIKSEFIRAKYQMLAFVHKLPCRDDDGVTAKDLSKQLHSSVRTGNLETCLRLLSLGAQANFFHPEKGTTPLHVAAKAGQTLQAELLVVYGADPGSPDVNGRTPIDYARQAGHHELAERLVECQYELTDRLAFYLCGRKPDHKNGHYIIPQMADRSRQKCMSQSLDLSELAKAAKKKLQALSNRLFEELAMDVYDEVDRRENDAVWLATQNHSTLVTERSAVPFLPVNPEYSATRNQGRQKLARFNAREFATLIIDILSEAKRRQQGKSLSSPTDNLELSARSQSELDDQHDYDSVASDEDTDQEPLPSAGATRNNRARSMDSSDLSDGAVTLQEYLELKKALATSEAKVQQLMKVNSSLSDELRRLQREIHKLQAENLQLRQPPGPVPPPSLPSERAEHTLMGPGGSTHRRDRQAFSMYEPGSALKPFGGTPGDELATRLQPFHSTELEDDAIYSVHVPAGLYRIRKGVSASSVPFTPSSPLLSCSQEGSRHASKLSRHGSGADSDYENTQSGDPLLGLEGKRFLELSKEDELHPELESLDGDLDPGLPSTEDVILKTEQVTKNIQELLRAAQEFKHDSFVPCSEKIHLAVTEMASLFPKRPALEPVRSSLRLLNASAYRLQSECRKTVPPEPGAPVDFQLLTQQVIQCAYDIAKAAKQLVTITTREKKQ
B1: the binding result in assay [1] is reported as “binds”.

B2: Myosin-If (protein, UniProt P70248 1-1099)
chain: MGSKERFHWQSHNVKQSGVDDMVLLSQITEDAIVRNLHKRFMDDYIFTYIGSVLISVNPFKQMPYFTDREIDLYQGAVQYEEPPHIYALTDNMYRNMLIDCENQCVIISGESGAGKTVAAKYIMGYISKVSGGGDKVQHVKDIILQSNPLLEAFGNAKTVRNNNSSRFGKYFEIQFSRGGEPDGGKISNFLLEKSRVVMQNENERNFHIYYQLLEGASQEQQQNLGIMSQDYYYYLNQSDTYKVEGTDDRSDFSETLSAMQVMGFRQACQQLVLQLVAGILHLGNISFCEEGNYARVESVDSLAFPAYLLGIDSGRLQEKLTSRKMDSKWGGRSESIDVTLNVEQAAYTRDALAKGLYARLFDFLVEAINRAMQKPQEEYSIGVLDIYGFEIFQKNGFEQFCINFVNEKLQQIFIELTLKAEQEEYVQEGIRWTPIEYFNNKIVCDLIENKLSPPGIMSVLDDVCATMHATGGGADQTLLQKLQAAVGTHEHFNSWSAGFVIHHYAGKVSYDVSGFCERNRDVLFSDLIELMQSSDQDFLRMLFPEKLNIDKKGRPSTAGSKIKKQANDLVSTLKKCTPHYIRCIKPNETKRPRDWEESRVKHQVEYLGLRENIRVRRAGFAYRRQFSKFLQRYAILTPETWPRWRGDERQGVQHLLRAVNMEPDQYQMGSTKVFVKNPESLFLLEEMRERKFDGFARTIQKAWRRHVAVRKYEEMREEASNILLNKKERRRNSINRNFVGNYLGLEERPELRQFLAKRERVDFADSVTKYDRRFKPIKRDLILTPKCVYVIGTEKVKRGPEKGLVREVLKKKLDIQALRGVSLSTRQDDFFILQEEAADTFLESIFKTEFVSLLCKRFEEAARRPLPLTFQDILQFRVKKKGWGGGGTRNVTFSAGQVNLAVLKAGGKTLTISLGDGLPKNSKPTRKGLAQGKPRRSAQAPTRAVPWASQGLNRNGATLFPRGEGPYTLEIYIWPQEFPEASTAIHLQPQDASRRPRARPPSEHSTEFLNVPDQGVAGMQRKRSIGQRPVPASRPKPQPRTHGPRCRALYQYIGQDVDELSFNVNEVIEILIEDSSGWWKGRLHGQEGLFPGNYVEKI
B2: the binding entry in assay [1] is “binds”.

B3: Tyrosine-protein phosphatase non-receptor type 12 (enzyme, UniProt P35831 1-775)
chain: MEQVEILRRFIQRVQAMKSPDHNGEDNFARDFMRLRRLSTKYRTEKIYPTATGEKEENVKKNRYKDILPFDHSRVKLTLKTPSQDSDYINANFIKGVYGPKAYVATQGPLANTVIDFWRMIWEYNVVIIVMACREFEMGRKKCERYWPLYGEDPITFAPFKISCENEQARTDYFIRTLLLEFQNESRRLYQFHYVNWPDHDVPSSFDSILDMISLMRKYQEHEDVPICIHCSAGCGRTGAICAIDYTWNLLKAGKIPEEFNVFNLIQEMRTQRHSAVQTKEQYELVHRAIAQLFEKQLQLYEIHGAQKIADGNEITTGTMVSSIDSEKQDSPPPKPPRTRSCLVEGDAKEEILQPPEPHPVPPILTPSPPSAFPTVTTVWQDSDRYHPKPVLHMASPEQHPADLNRSYDKSADPMGKSESAIEHIDKKLERNLSFEIKKVPLQEGPKSFDGNTLLNRGHAIKIKSASSSVVDRTSKPQELSAGALKVDDVSQNSCADCSAAHSHRAAESSEESQSNSHTPPRPDCLPLDKKGHVTWSLHGPENATPVPDSPDGKSPDNHSQTLKTVSSTPNSTAEEEAHDLTEHHNSSPLLKAPLSFTNPLHSDDSDSDGGSSDGAVTRNKTSISTASATVSPASSAESACTRRVLPMSIARQEVAGTPHSGAEKDADVSEESPPPLPERTPESFVLADMPVRPEWHELPNQEWSEQRESEGLTTSGNEKHDAGGIHTEASADSPPAFSDKKDQITKSPAEVTDIGFGNRCGKPKGPREPPSEWT
Regarding B3, the binding result in assay [1] and in assay [2] was “binds” in each case.

The values are drawn from article PMC5070766.
